# Measurements taken from US10487094B1, “Bergenin thiodipropionic acid ester with antioxidant activity and a method of improving the antioxidant property of ganoderma lucidum spore oil using the same” (SHAANXI UNIVERSITY OF SCIENCE AND TECHNOLOGY, priority 2018, dated 2019).
# Assay: DPPH radical scavenging activity of sample and control solutions
# Assay type: biochemical
# Settings: solution + DPPH, 517 nm
# Excerpt: In the DPPH molecule, due to the presence of multiple electron-withdrawing —NO2 and large π bonds of the benzene ring, nitrogen free radical is stabilized. Its methanol solution is purple and has a maximum absorption peak at 517 nm. After the addition of an antioxidant, DPPH captures an electron to be paired with the free electron, and the purple fades and turns into a yellow substance. The absorption at 517 nm disappears, and the degree of fading is quantitatively related to the number of electrons it captures. Based on this principle, a spectrophotometer is used to detect the change of the absorbance of the DPPH radical and the sample solution, and the ability of the sample to provide hydrogen atoms and scavenge free radicals can be measured.
# Preparation of DPPH Solution: Measuring Exact Amount of 1,1-diphenyl-2-picryl hydrazyl (DPPH) and dissolving in methanol to prepare a 0.2 mmol/L DPPH Solution, Stored at 0° C. in Dark
# Preparation of sample solutions: Vitamin C (positive control), bergenin thiodipripionic acid ester (sample), bergenin (control), thiodipropionic acid (control), mixture of bergenin and thiodipropionic acid (control). The sample solution was serially diluted with acetonitrile, and four groups of controls were separately dissolved in a test tube with a certain amount of methanol to prepare the same concentration gradient as the sample. Four corresponding groups of control solutions were prepared in the same way.
# 2 mL of the sample solution (Table 1: B), 2 mL 0.2 mmol/L DPPH solution was added, the mixture was mixed and reacted at room temperature in dark for 30 minutes, and methanol was then added to adjust final volume. The absorbance Ai was measured at 517 nm. 2 mL control solution and 2 mL methanol were mixed, and the absorbance Aj was measured. 2 mL DPPH solution and 2 mL methanol were mixed, and the absorbance A0 was measured.
# 2 mL of the control solutions (Table 1: C, D, E), 2 mL 0.2 mmol/L DPPH solution was added, the mixture was mixed and reacted at room temperature in dark for 30 minutes, and methanol was then added to adjust final volume. The absorbance Ai was measured at 517 nm. 2 mL control solution and 2 mL methanol were mixed, and the absorbance Aj was measured. 2 mL DPPH solution and 2 mL methanol were mixed, and the absorbance A0 was measured. The scavenging activity of the sample solution and control solutions is calculated according to the following calculation formula. Scavenging activity (%)=[1−(Ai−Aj)/Ao]*100%
SMILES,Absorbance Ai (0.04 mg/ml),Absorbance Ai (0.08 mg/ml),Absorbance Ai (0.16 mg/ml),Absorbance Ai (0.83 mg/ml),Absorbance Ai (1.66 mg/ml),Absorbance Ai (8.28 mg/ml),Absorbance Ai (16.56 mg/ml),Absorbance Ai (24.84 mg/ml),Absorbance Ai (33.12 mg/ml)
"COc1c(O)cc2c(c1O)C1OC(COC(=O)CCSCCC(=O)OCC3OC4c5c(cc(O)c(OC)c5O)C(=O)OC4C(O)C3O)C(O)C(O)C1OC2=O (stereo not drawn) [B, bis((3,4,8,10-tetrahydroxy-9-methoxy-6-oxo-2,3,4,4a,6,10b-hexahydropyrano[3,2-c]isochromen-2-yl)methyl) 3,3′-thiodipropionate]",0.651,0.563,0.441,0.360,0.261,0.158,0.043,0.038,0.035
"COc1c(O)cc2c(c1O)[C@@H]1O[C@H](CO)[C@@H](O)[C@H](O)[C@H]1OC2=O [C, Bergenin]",0.935,0.898,0.820,0.762,0.595,0.420,0.046,0.046,0.041
"O=C(O)CCSCCC(=O)O [D, Thiodipropionic acid]",0.858,0.798,0.795,0.793,0.792,0.782,0.771,0.760,0.747
